# Structures can show the parent of a compound that is named as a salt. The list shows a part of the results. This data set is noisy: repeats of one test often differ as much as different tests do.
# System: MDA-MB-468
# Test: phospho-S6 immunofluorescence (DAPI-normalised), per-plate z-score; higher = higher phospho-S6 signal (less pathway suppression)
# Details: 24 h
# Experimental: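 GPCR-targeted compound library (MedChemExpress HY-L006) tested on MDA-MB-468 PTEN-null TNBC cells in 384-well plates at 0.1, 1 or 10 uM, combined with vehicle, GDC0941 450 nM or lapatinib 1 uM, for 24 h. Phospho-S6 (S240/244) immunofluorescence normalised to DAPI and expressed as a per-plate z-score; values are the mean of biological triplicates.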
# [1] = compound 0.1 µM, co-treatment: GDC0941 450 nM
# [2] = compound 0.1 µM, co-treatment: lapatinib 1 uM
# [3] = compound 0.1 µM, co-treatment: vehicle
# [4] = compound 1 µM, co-treatment: GDC0941 450 nM
# [5] = compound 1 µM, co-treatment: lapatinib 1 uM
# [6] = compound 1 µM, co-treatment: vehicle
# [7] = compound 10 µM, co-treatment: GDC0941 450 nM
# [8] = compound 10 µM, co-treatment: lapatinib 1 uM
# [9] = compound 10 µM, co-treatment: vehicle
SMILES,phospho-S6 immunofluorescence (z-score) [1],phospho-S6 immunofluorescence (z-score) [2],phospho-S6 immunofluorescence (z-score) [3],phospho-S6 immunofluorescence (z-score) [4],phospho-S6 immunofluorescence (z-score) [5],phospho-S6 immunofluorescence (z-score) [6],phospho-S6 immunofluorescence (z-score) [7],phospho-S6 immunofluorescence (z-score) [8],phospho-S6 immunofluorescence (z-score) [9]
COc1ccc2ccc(=O)oc2c1CC=C(C)C [Osthole],-0.81,-0.39,0.08,0.29,-0.29,0.45,0.06,0.19,0.23
CC(C)(C)C(=O)C(=Nc1ccc(Cl)cc1)NNc1ccc(Cl)cc1,0.19,-0.44,-0.43,-0.78,-0.84,-0.07,-3.52,-6.25,-3.76
COc1ccc(CCN2CCN(CCCc3ccccc3)CC2)cc1OC [SA4503 (dihydrochloride)],-0.53,-0.23,-0.24,-0.16,0.52,0.2,0.13,-0.13,-0.47
OCCNC1CCCc2c1[nH]c1ccc(-c3ccccc3)cc21 (centres undefined),-0.4,-0.22,0.65,-0.89,-2.18,0.44,-5.16,-8.66,-9.39
C[N+](C)(C)CCOC(N)=O [Carbamoylcholine (chloride)],1.23,-0.52,1.02,-0.65,-0.16,0.62,0.06,0.02,0.87
c1ccc2c(CC3=NCCN3)cccc2c1 [Naphazoline (hydrochloride)],0.43,-0.77,0.38,-0.65,-0.81,-0.06,-0.78,0.03,0.05
COc1ccc(CC(C)NCC(O)c2ccc(O)c(NC=O)c2)cc1 (centres undefined) [Formoterol (Fumarate)],0.28,0.73,0.44,1.53,2.91,0.58,1.08,0.77,0.16
CC(C)(C)NC[C@H](O)COc1nsnc1N1CCOCC1 [(S)-Timolol (Maleate)],-0.46,0.26,-0.82,-0.24,-0.08,-1.49,-0.17,0.33,-0.06
C/C(=N\NC(=O)C(NC(=O)c1ccccc1)c1n[nH]c(=O)c2ccccc12)c1cccc(Br)c1 (centres undefined),-0.44,0.63,-0.11,0.22,0.14,0.65,0.96,0.13,0.95
Cc1c(-c2ccccc2)oc2c(C(=O)OCCN3CCCCC3)cccc2c1=O [Flavoxate (hydrochloride)],0.88,0.06,0.28,0.74,0.21,-0.21,0.25,0.29,0.07
CN1[C@@H]2CC[C@H]1C[C@@H](OC(=O)C(O)c1ccccc1)C2 (some centres undefined) [Homatropine (Bromide)],-0.17,-1.24,-0.6,-1.09,-0.61,0.28,-0.26,0.08,0.37
Cc1cc2c(s1)Nc1ccccc1N=C2N1CCN(C)CC1 [Olanzapine],0.82,1.46,1.6,0.75,0.69,0.39,0.77,0.3,0.35
CC(C)N(CCCCOCC(=O)O)c1cnc(-c2ccccc2)c(-c2ccccc2)n1,-0.25,0.88,-0.13,0.08,0.81,0.29,1.34,1.89,0.56
CCc1nc2c(C)nc(C)cc2n1-c1ccc(CCNC(=O)NS(=O)(=O)c2ccc(C)cc2)cc1 [Grapiprant],0.21,1.03,0.01,0.01,0.5,-0.35,-0.05,-0.15,-0.51
CC[C@H](NC(=O)c1c(O)c(-c2ccccc2)nc2ccccc12)c1ccccc1 [Talnetant],-0.35,-1.46,-1.05,-0.25,-0.44,-0.26,0.6,0.47,0.13
CCCCCN(CCCOC)C(=O)C(CCC(=O)O)NC(=O)c1ccc(Cl)c(Cl)c1 (centres undefined) [Loxiglumide],0.42,0.65,0.32,0.13,-0.69,-0.63,0.5,0.64,0.51
COc1ccc(CNC(=O)c2sc3nc(C)cc(C)c3c2N)cc1,-0.46,-0.73,-1.42,0.21,1.61,0.39,-1.98,1.66,0.34
CN1CCN(C2=Nc3cc(Cl)ccc3Nc3ccccc32)CC1 [Clozapine],-0.36,0.37,-1.8,-1.18,0.54,-2.56,-0.16,-0.32,-0.32
O=C1CCc2ccc(OCCCCN3CCN(c4cccc(Cl)c4Cl)CC3)cc2N1 [Aripiprazole],0.2,1.79,0.78,0.08,0.1,0.63,-3.14,-5.16,-3.2
CCC(=O)O[C@]1(C(=O)SCF)[C@H](C)C[C@H]2[C@@H]3C[C@H](F)C4=CC(=O)C=C[C@]4(C)[C@@]3(F)[C@@H](O)C[C@@]21C [Fluticasone (propionate)],-1.73,-0.4,0.2,-0.91,0.37,0.11,0.26,-0.29,-0.43
CC1(C)CN2C(CSC(=NC3CCCCC3)NC3CCCCC3)=CSC2=N1 [IT1t (dihydrochloride)],-2.06,-1.02,-0.78,-2.08,-0.61,-0.93,-2.08,-0.41,-1.11

# An excerpt from above in order of length of the SMILES, rising.
SMILES,phospho-S6 immunofluorescence (z-score) [1],phospho-S6 immunofluorescence (z-score) [2],phospho-S6 immunofluorescence (z-score) [3],phospho-S6 immunofluorescence (z-score) [4],phospho-S6 immunofluorescence (z-score) [5],phospho-S6 immunofluorescence (z-score) [6],phospho-S6 immunofluorescence (z-score) [7],phospho-S6 immunofluorescence (z-score) [8],phospho-S6 immunofluorescence (z-score) [9]
CC1(C)CN2C(CSC(=NC3CCCCC3)NC3CCCCC3)=CSC2=N1 [IT1t (dihydrochloride)],-2.06,-1.02,-0.78,-2.08,-0.61,-0.93,-2.08,-0.41,-1.11
CN1[C@@H]2CC[C@H]1C[C@@H](OC(=O)C(O)c1ccccc1)C2 (some centres undefined) [Homatropine (Bromide)],-0.17,-1.24,-0.6,-1.09,-0.61,0.28,-0.26,0.08,0.37
CCC(=O)O[C@]1(C(=O)SCF)[C@H](C)C[C@H]2[C@@H]3C[C@H](F)C4=CC(=O)C=C[C@]4(C)[C@@]3(F)[C@@H](O)C[C@@]21C [Fluticasone (propionate)],-1.73,-0.4,0.2,-0.91,0.37,0.11,0.26,-0.29,-0.43

# (list continues)

SMILES,phospho-S6 immunofluorescence (z-score) [1],phospho-S6 immunofluorescence (z-score) [2],phospho-S6 immunofluorescence (z-score) [3],phospho-S6 immunofluorescence (z-score) [4],phospho-S6 immunofluorescence (z-score) [5],phospho-S6 immunofluorescence (z-score) [6],phospho-S6 immunofluorescence (z-score) [7],phospho-S6 immunofluorescence (z-score) [8],phospho-S6 immunofluorescence (z-score) [9]
O=C(O[C@H]1CN2CCC1CC2)N1CCc2ccccc2[C@@H]1c1ccccc1 [Solifenacin (hydrochloride)],0.37,0.14,-0.91,-0.44,-0.4,-2.02,0.75,1.12,-1.36
CN1CCN(C2=Nc3ccccc3Oc3ccc(Cl)cc32)CC1 [Loxapine],1.82,-0.11,0.59,0.76,0.8,1.66,0.6,-0.55,0.95
Cc1ccc(S(=O)(=O)N2CCCC2c2ccc(F)cc2)cc1 (centres undefined),0.19,-0.25,0.08,-2.27,-0.44,-0.3,-2.47,0.46,-1.81
CCCN[C@@H]1CCc2nc(N)sc2C1 [Dexpramipexole (dihydrochloride)],-0.08,-0.67,-0.41,0.83,0.96,0.64,1.16,0.15,0.4
NCCc1ccc(O)c(O)c1 [Dopamine (hydrochloride)],-0.6,-0.3,-0.64,-0.36,0.6,-1.97,0.84,0.53,0.15
Cc1cccn2c(=O)c(-c3nnn[nH]3)cnc12 [Pemirolast (potassium)],-0.69,-0.66,-0.93,0.65,-0.06,-1.05,-0.3,-0.65,-1.33
CCn1c(=O)c2c(nc(/C=C/c3ccc(OC)c(OC)c3)n2C)n(CC)c1=O [Istradefylline],0.73,0.96,0.26,0.87,1.28,1.94,0.2,0.09,-0.74
COc1cc(/C=C/C(=O)O)ccc1O [Ferulic acid (sodium)],0.8,0.73,0.22,0.42,0.49,0.82,0.56,0.36,0.33
C[C@H](CCC(=O)O)[C@H]1CC[C@H]2[C@@H]3CC[C@@H]4C[C@H](O)CC[C@]4(C)[C@H]3C[C@H](O)[C@]12C [Deoxycholic acid],0.35,0.38,-0.06,0.24,0.15,-0.22,0.02,0.6,-0.17
Cc1ccccc1C(=O)Nc1ccc(C(=O)N2CCCC(N(C)C)c3ccccc32)cc1 (centres undefined) [Mozavaptan],-0.03,-0.37,0.52,0.33,-0.64,-0.55,-0.25,-0.18,-0.16
C[C@]12CCC(=O)C=C1CC[C@@H]1[C@@H]2CC[C@@]2(C)[C@H]1CC[C@]2(O)C(=O)CO [Cortodoxone],0.33,0.09,-1.17,-0.56,1.18,-1.94,-0.95,1.37,-0.43
CCCCCCn1c(O)c(N=NC(=O)c2ccccc2)c2ccccc21,-0.9,-1.06,0.05,-1.06,0,0.21,-2.97,-0.75,0.59
CC(=O)OC(C)C[N+](C)(C)C (centres undefined) [Methacholine (chloride)],0.27,0.51,1.06,-0.82,0.49,0.87,0.63,0.47,1
C=C[C@@]1(C)CC(=O)[C@]2(O)[C@@]3(C)[C@@H](O)CCC(C)(C)[C@@H]3[C@H](O)[C@H](OC(C)=O)[C@@]2(C)O1 [Forskolin],0.08,-0.63,-0.37,1.12,2.09,0.28,1.82,2.65,0.23
COc1cccc(CCc2ccccc2OCC(CN(C)C)OC(=O)CCC(=O)O)c1 (centres undefined) [Sarpogrelate (hydrochloride)],-0.85,0.37,-0.71,-0.3,0.18,-2.33,0.63,-0.51,-0.15
C[C@]12CCC(=O)C=C1CC[C@@H]1[C@@H]2C(=O)C[C@@]2(C)[C@H]1CC[C@]2(O)C(=O)CO [Cortisone],-0.15,0.88,1.52,0.51,0.56,1.15,0.47,0.58,1.14
CC(=O)OCC(=O)[C@@]12N=C(C)O[C@@H]1C[C@H]1[C@@H]3CCC4=CC(=O)C=C[C@]4(C)[C@H]3[C@@H](O)C[C@@]12C [Deflazacort],-0.81,0.35,-0.35,-0.5,0.39,-0.26,-0.99,-0.57,-0.08
CCc1c(C(=O)NCCc2ccc(N3CCCCC3)cc2)[nH]c2ccc(Cl)cc12,-0.41,0.08,0.79,0.15,0.27,-0.03,-1.02,-0.3,0.27
C[C@]12C=CC(=O)C=C1CC[C@H]1[C@@H]3C[C@@H](O)[C@](O)(C(=O)CO)[C@@]3(C)C[C@H](O)[C@@]12F [Triamcinolone],-0.83,1.58,0.81,-0.82,0.02,1.12,0.04,0.82,0.94
Cc1sc(C)c(C(=O)NC2(c3ccc(C(=O)O)cc3)CC2)c1Cc1ccc(C(F)(F)F)cc1,-0.88,-0.8,1.08,-1.5,-0.68,-0.21,-1.42,-0.58,0.73

# — the supplement of paper PMC7411640
